In patent publication US7083932B1, “Nucleic acid molecules encoding peptides having pronociceptive properties” (Euroscreen, s.a., priority 1995, dated 2006):
At least one compound was matched to its structure with a doubt left.

What was measured:
mice [1] = assay: hot plate test after single i.c.v. injection of the heptadecapeptide; assay type: in vivo; conditions: 10 or 100 ng i.c.v.
CHO(ORL1−) cells = assay type: cell-based
mice [2] = assay: locomotor activity (Digiscan Animal Activity Monitor), horizontal and vertical; assay type: in vivo

With `CC(C)C[C@H](NC(=O)[C@H](CCCCN)NC(=O)[C@H](CCCN=C(N)N)NC(=O)[C@H](C)NC(=O)[C@H](CO)NC(=O)[C@H](CCCCN)NC(=O)[C@H](CCCN=C(N)N)NC(=O)[C@H](C)NC(=O)CNC(=O)[C@@H](NC(=O)[C@H](Cc1ccccc1)NC(=O)CNC(=O)CNC(=O)[C@@H](N)Cc1ccccc1)[C@@H](C)O)C(=O)N[C@@H](C)C(=O)N[C@@H](CC(N)=O)C(=O)N[C@@H](CCC(N)=O)C(=O)O` [Nociceptin] the “reactivity in the hot plate test” value (mice [1]) was “hyperreactive”, the “action on cyclase in non recombinant CHO(ORL1−) cell line” value (CHO(ORL1−) cells) was “no action” and the horizontal locomotor activity (mice [2]; 10 ng/mouse i.c.v.) was “statistically significant increase”. The horizontal locomotor activity (mice [2]; 100 ng i.c.v.) was “even more pronounced” and the Straub tail phenomenon (mice [2]; mice, i.c.v.) was “Neither does nociceptin induce the Straub tail phenomenon”.
